Measured values from patent US8535662B2, “Apyrase therapy for bleeding conditions” (Apt Therapeutics, Inc., priority 2010, dated 2013).
Some results were stated once for a whole list of compounds, not compound by compound.

Legend:
[1] = test system: pigs, coronary injury with stenting; test: Coronary injury (balloon overstretch) and bare metal stent in pigs: platelet accumulation and luminal stenosis (Example 6); type: in vivo, pig; conditions: after 24 h, apyrase […] or clopidogrel 8 mg/kg, each with aspirin 10 mg/kg and heparin
Protocol: Coronary injury with or without stenting in pigs is regarded as the best preclinical model for simulation of human angioplasty (Touchard, A. G., et al., Thromb. Res. (2007) 120:477-484). One coronary artery was injured by balloon overstretch in each pig and the site of injury including some overlap with the non-injured vessel was covered with a single bare metal stent (BMS).
Accumulation of ^111In-labeled autologous platelets on the stents over the first 24 h was measured in 4/6 pigs in each group. Radiolabeled platelets were injected 15 min before the coronary catheterization and the hearts perfusion-fixed after 24 h to obtain the stented vessel segment for counting radiolabeled platelets.

[2] = test system: dogs, coronary thrombotic occlusion; test: Canine coronary thrombosis and fibrinolysis model, adjunctive treatment with rtPA (Example 7); type: in vivo, dog; conditions: clopidogrel 4 mg/kg p.o., low dose apyrase agent 0.25 mg/kg IV
Protocol: Thrombotic occlusion was induced by electrical injury to a coronary artery in dogs. […] Buccal mucosa bleeding times, PT, and aPTT were measured as indices of bleeding risk. After 24 hours of reperfusion, infarct size was determined by Evan's blue and triphenyltetrazolium chloride double staining. This protocol is illustrated in FIG. 7.

B1: sol CD39L3 R67G T69R (protein)
chain: EVLPPGLKYGIVLDAGSSGTRVYVYQWPAEKENNTGVVSQTFKCSVKGSGISSYGNNPQDVPRAFEECMQKVKGQVPSHLHGSTPIHLGATAGMRLLRLQNETAANEVLESIQSYFKSQPFDFRGAQIISGQEEGVYGWITANYLMGNFLEKNLWHMWVHPHGVETTGALDLGGASTQISFVAGEKMDLNTSDIMQVSLYGYVYTLYTHSFQCYGRNEAEKKFLAMLLQNSPTKNHLTNPCYPRDYSISFTMGHVFDSLCTVDQRPESYNPNDVITFEGTGDPSLCKEKVASIFDFKACHDQETCSFDGVYQPKIKGPFVAFAGFYYTASALNLSGSFSLDTFNSSTWNFCSQNWSQLPLLLPKFDEVYARSYCFSANYIYHLFVNGYKFTEETWPQIHFEKEVGNSSIAWSLGYMLSLTNQIPAESPLIRLPIEPPV
modifications: glycosylated; synthetically constructed apyrase
accumulation of radiolabeled platelets on stented coronaries [1]: less than 4×10^5 platelets/mm^2 | time after fibrinolysis within which reocclusion occurred in all dogs [2]: ≤ 230 min
